No constants are given. Whether binding was seen depends on the method and setting. For some of these results: Binding seen in cells or lysates may run through a third protein. Some binding calls cover weakened binding; strength is not graded here. For some of these results: Sequences can lack the tags named with a protein. Values belong to the molecule of their own block, whether it stands above or below them.
Columns and labels:
[1] = target: T1, FITC-CCNL1^321-332 peptide phosphorylated at both T325 and S329 (UniProt Q9UK58); experiment: fluorescence polarisation
T1 sequence (peptide, phosphothreonine at T325; phosphoserine at S329; FITC-conjugated): NPDGTPALSTLG

Amino acid sequences for entries named in this document (tags omitted). A change or cut given only in a name is not applied to a line headed by its entry.
UniProt Q969H0: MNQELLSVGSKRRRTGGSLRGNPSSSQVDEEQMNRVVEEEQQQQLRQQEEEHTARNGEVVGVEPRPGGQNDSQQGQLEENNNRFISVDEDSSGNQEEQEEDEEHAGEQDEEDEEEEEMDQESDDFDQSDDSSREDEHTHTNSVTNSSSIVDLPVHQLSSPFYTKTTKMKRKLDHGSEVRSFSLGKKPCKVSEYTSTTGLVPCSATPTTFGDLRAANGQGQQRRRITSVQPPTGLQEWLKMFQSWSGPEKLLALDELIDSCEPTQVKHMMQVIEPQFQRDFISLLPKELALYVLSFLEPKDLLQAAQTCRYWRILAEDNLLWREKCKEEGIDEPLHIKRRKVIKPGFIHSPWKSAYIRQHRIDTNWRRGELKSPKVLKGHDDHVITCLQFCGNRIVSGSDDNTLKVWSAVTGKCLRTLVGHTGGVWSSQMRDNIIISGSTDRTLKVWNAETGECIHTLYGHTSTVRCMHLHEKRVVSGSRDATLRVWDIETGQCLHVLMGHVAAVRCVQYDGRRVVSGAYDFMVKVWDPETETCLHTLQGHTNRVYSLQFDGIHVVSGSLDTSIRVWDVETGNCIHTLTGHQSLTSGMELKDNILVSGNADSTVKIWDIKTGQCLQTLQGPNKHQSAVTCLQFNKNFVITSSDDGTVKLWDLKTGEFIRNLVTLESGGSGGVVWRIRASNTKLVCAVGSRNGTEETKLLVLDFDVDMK
UniProt Q13619: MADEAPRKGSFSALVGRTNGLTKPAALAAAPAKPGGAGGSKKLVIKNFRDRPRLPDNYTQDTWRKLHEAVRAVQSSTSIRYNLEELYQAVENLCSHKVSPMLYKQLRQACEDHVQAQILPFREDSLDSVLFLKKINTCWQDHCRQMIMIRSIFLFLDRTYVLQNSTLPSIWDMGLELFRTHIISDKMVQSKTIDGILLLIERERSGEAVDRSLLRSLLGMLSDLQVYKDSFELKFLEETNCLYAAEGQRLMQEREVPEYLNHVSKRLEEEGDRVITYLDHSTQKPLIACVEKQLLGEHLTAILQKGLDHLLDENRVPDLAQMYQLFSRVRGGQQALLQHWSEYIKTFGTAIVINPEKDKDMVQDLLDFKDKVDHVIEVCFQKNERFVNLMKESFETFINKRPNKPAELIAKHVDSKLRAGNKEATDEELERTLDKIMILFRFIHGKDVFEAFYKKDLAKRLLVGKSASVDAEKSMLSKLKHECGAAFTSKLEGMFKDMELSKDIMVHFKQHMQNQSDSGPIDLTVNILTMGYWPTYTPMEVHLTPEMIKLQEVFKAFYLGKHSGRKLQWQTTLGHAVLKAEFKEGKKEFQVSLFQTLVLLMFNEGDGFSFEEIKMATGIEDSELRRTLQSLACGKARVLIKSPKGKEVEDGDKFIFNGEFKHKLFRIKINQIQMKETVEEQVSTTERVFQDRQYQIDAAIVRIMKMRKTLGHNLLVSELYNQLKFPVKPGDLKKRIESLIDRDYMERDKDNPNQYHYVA

FLAG-CCNL1 (HPAF-II) = target: T2, FLAG-CCNL1 (HPAF-II) (UniProt Q9UK58); experiment: co-IP
T2 sequence: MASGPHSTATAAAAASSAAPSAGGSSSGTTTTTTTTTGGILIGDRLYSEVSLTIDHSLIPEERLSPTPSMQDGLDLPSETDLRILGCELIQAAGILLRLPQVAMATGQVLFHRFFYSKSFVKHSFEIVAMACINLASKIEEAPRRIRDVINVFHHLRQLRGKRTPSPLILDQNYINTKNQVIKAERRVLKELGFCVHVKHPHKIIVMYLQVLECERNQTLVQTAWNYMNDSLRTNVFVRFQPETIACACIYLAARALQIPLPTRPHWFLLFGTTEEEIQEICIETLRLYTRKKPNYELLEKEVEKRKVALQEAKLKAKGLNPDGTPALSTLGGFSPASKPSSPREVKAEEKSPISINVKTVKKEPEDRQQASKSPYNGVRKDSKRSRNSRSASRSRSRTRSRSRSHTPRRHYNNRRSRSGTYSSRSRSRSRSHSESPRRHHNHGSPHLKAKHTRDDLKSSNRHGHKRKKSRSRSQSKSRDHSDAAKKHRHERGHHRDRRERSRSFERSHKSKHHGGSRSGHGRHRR

FLAG-CCNL1 (HEK293T) = target: T3, FLAG-CCNL1 (HEK293T) (UniProt Q9UK58); experiment: co-IP
T3 sequence: T2 sequence

FLAG-FBXW7 (human) = FLAG-FBXW7 (human) (UniProt Q969H0); experiment: co-IP

Molecule: Skp1-FBXW7^263-707 complex (from UniProt Q969H0 263-707; P63208 1-163)
binding [1]: binds

B1: endogenous CCNL1 (protein, UniProt Q9UK58 1-526)
chain: T2 sequence
binding (FLAG-FBXW7 (human)): binds

The remaining lines, values ahead:

binding (FLAG-CCNL1 (HPAF-II)): binds
Molecule: endogenous CUL4A (from UniProt Q13619 1-759)

binding (FLAG-CCNL1 (HEK293T)): binds
Molecule: endogenous FBXW7 (from UniProt Q969H0 1-707)

— publication doi:10.1101/2022.09.26.509608
